These are yes or no findings as the source states them, for the method shown. For some of these results: Binding seen in cells or lysates may run through a third protein. Some binding calls cover weakened binding; strength is not graded here. Sequences can lack the tags named with a protein.
Tests used:
[1] = target: T1, BD-OsWRKY76 (rice (Oryza sativa)) (UniProt Q6EPZ2); experiment: two-hybrid; yeast strain Y2HGold; bait in pbridge (BD), prey in pGADT7 (AD); growth on SD/-Trp-Leu and SD/-Trp-Leu-His dropout plates
T1 sequence: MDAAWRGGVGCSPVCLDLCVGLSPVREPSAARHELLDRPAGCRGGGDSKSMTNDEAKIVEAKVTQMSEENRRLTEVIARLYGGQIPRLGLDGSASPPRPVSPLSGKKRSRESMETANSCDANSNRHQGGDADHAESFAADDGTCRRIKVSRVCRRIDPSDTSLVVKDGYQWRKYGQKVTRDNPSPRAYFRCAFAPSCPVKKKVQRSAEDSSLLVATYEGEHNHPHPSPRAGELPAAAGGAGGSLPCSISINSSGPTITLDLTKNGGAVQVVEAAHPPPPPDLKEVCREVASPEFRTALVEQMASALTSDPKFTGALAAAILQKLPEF

[2] = target: T2, OsWRKY76-nYFP (rice (Oryza sativa)) (UniProt Q6EPZ2); experiment: split reporter; BiFC with nYFP and cYFP fusions transformed into Arabidopsis protoplasts (the results say rice protoplasts); fluorescence microscopy
T2 sequence: T1 sequence

B1: AD-OsJAZ8 (protein, UniProt Q69P94 1-232)
chain: MAGRATATATAAGKDRSSFAVTCSLLSQFLKEKKGGGGGLQGLGLGLRPAPAAPPAAGAGGAFRPPPTTMNLLSGLDAPAVEVEPNTAETAADELPLIKAPADQQSDESASEAAGEKAQQLTIFYGGKVVVFENFPSTKVKDLLQIVSTGDGVDKNTGTAATQSLPRPAHNSLPDLPIARRNSLHRFLEKRKGRMNANAPYQANCTAAPSKQANGDKSWLGFGQEMTIKQEI
In the case of B1, the binding [1] is reported as “binds”.

B2: AD-OsJAZ12 (protein, UniProt Q7XEZ1 1-171)
chain: MAAAGSSSRFAVTCGLLSQYMRERQQPQPPVTVLEAVAEEEEEEDARTMQLFPPRAAAADGVATPSAGTAPLTIFYDGRMVVVDDVPVEKAAELMRLAGSACSPPQPAHAAALPEMPIARKASLQRFLQKRKHRITTTSEPYKKAAVASPAPEKSFAVAPVKDEPATWLGL
For B2, the binding [1] was “binds”.

B3: cYFP-OsJAZ12 (protein, UniProt Q7XEZ1 1-171)
chain: B2 chain
For B3, the binding [2] was “binds”.

B4: AD-OsJAZ7 (protein, UniProt Q8H395 1-244)
chain: MAASARPVGVGGERATSFAMACSLLSRYVRQNGAAAAELGLGIRGEGEAPRAAPATMSLLPGEAERKKETMELFPQSAGFGQQDAITADSAADAREQEPEKRQLTIFYGGKVLVFNDFPADKAKGLMQLASKGSPVAPQNAAAPAPAAVTDNTKAPMAVPAPVSSLPTAQADAQKPARANASDMPIARKASLHRFLEKRKDRLNAKTPYQASPSDATPVKKEPESQPWLGLGPNAVVKPIERGQ
For B4, the binding [1] was “no binding”.

Reference: paper PMC10113545, “OsWRKY76 positively regulates drought stress via OsbHLH148-mediated jasmonate signaling in rice”
